Data reported in article PMC5209718, “Piscidin-1-analogs with double L- and D-lysine residues exhibited different conformations in lipopolysaccharide but comparable anti-endotoxin activities” (Scientific Reports, 2017).
Residues, ends and D or L forms follow the SMILES beside them.

Tested on: hRBCs versus E. coli (ATCC 25922)
Assay type: cell-based
Details: HC50 hRBCs / MIC E. coli (ATCC 25922); for fold higher therapeutic index than piscidin-1: relative to piscidin-1

Molecule | Therapeutic Index (HC50/MIC) | fold higher therapeutic index than piscidin-1
CC[C@H](C)[C@H](NC(=O)CNC(=O)[C@H](CCCNC(=N)N)NC(=O)[C@H](Cc1ccccc1)NC(=O)[C@@H](NC(=O)[C@H](Cc1c[nH]cn1)NC(=O)[C@H](Cc1c[nH]cn1)NC(=O)[C@H](Cc1ccccc1)NC(=O)[C@@H](N)Cc1ccccc1)[C@@H](C)CC)C(=O)N[C@H](C(=O)N[C@@H](Cc1c[nH]cn1)C(=O)N[C@H](C(=O)NCC(=O)N[C@@H](CCCCN)C(=O)N[C@H](CCCCN)C(=O)N[C@H](C(=O)N[C@@H](Cc1c[nH]cn1)C(=O)N[C@@H](CCCNC(=N)N)C(=O)N[C@@H](CC(C)C)C(=O)N[C@H](C(=O)N[C@H](CCCCN)C(=O)NCC(N)=O)C(C)C)[C@@H](C)CC)C(C)C)C(C)C [T15,21dK Piscidin-1] (HELM PEPTIDE1{F.F.H.H.I.F.R.G.I.V.H.V.G.K.[dK].I.H.R.L.V.[dK].G.[am]}$$$$V2.0) | 100 | ~ 20 fold
H-FFHHIFRGIVHVGKKIHRLVKG-NH2 [T15,21K Piscidin-1] | 100 | ~ 20 fold
